Test results from PubChem BioAssay (EPA / NIEHS).
The shares of active, inactive and inconclusive entries below differ from those in the screen. For some of these results: Potencies of inconclusive entries are doubtful fits and often do not repeat. Calls of active or inactive are those of the source. How the source made its calls: active means hit-call score of the fitted dose curve at least 0.9, where 1 is the maximum; inconclusive means response in the unintended direction; inactive means score below 0.9.

Protein sequences, listed by entry. Tags and fused reporters are not part of them. Lines headed by an entry give the natural chain unless they say otherwise; changes in a name come on top.
UniProt P14600, whole entry, looked up: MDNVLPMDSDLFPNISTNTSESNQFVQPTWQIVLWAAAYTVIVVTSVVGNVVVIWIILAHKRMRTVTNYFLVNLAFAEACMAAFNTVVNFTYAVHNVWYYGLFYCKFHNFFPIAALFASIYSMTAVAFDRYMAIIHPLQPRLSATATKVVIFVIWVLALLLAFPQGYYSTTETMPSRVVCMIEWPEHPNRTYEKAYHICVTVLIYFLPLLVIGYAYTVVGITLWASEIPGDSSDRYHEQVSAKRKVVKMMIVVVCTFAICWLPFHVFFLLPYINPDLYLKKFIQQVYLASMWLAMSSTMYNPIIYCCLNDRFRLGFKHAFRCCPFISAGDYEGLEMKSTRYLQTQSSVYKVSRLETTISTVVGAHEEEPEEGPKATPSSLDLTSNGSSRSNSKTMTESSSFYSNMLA
UniProt P33535, whole entry, looked up: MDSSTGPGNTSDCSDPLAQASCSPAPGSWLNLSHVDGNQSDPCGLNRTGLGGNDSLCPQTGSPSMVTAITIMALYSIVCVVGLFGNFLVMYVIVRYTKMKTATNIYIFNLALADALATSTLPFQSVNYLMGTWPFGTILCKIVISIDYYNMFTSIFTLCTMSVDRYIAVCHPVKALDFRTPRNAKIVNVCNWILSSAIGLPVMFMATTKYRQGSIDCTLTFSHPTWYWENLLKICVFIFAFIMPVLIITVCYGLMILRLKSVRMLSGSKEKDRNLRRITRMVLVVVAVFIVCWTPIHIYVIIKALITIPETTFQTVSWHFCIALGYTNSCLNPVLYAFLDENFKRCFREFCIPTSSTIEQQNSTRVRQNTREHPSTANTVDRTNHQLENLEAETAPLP
UniProt Q05941, whole entry, looked up: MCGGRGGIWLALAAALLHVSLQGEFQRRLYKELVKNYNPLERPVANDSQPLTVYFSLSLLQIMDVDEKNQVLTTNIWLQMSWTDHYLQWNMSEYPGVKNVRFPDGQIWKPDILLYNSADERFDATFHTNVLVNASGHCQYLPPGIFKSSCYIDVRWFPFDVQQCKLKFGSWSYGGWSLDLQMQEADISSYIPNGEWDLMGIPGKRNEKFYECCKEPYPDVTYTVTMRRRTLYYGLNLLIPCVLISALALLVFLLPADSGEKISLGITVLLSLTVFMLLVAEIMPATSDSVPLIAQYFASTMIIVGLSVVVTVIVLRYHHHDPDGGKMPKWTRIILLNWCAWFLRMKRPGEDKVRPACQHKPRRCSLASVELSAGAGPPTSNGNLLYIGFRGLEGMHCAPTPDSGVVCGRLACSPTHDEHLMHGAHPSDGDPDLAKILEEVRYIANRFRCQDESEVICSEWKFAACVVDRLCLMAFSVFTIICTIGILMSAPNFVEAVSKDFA
UniProt P19328, whole entry, looked up: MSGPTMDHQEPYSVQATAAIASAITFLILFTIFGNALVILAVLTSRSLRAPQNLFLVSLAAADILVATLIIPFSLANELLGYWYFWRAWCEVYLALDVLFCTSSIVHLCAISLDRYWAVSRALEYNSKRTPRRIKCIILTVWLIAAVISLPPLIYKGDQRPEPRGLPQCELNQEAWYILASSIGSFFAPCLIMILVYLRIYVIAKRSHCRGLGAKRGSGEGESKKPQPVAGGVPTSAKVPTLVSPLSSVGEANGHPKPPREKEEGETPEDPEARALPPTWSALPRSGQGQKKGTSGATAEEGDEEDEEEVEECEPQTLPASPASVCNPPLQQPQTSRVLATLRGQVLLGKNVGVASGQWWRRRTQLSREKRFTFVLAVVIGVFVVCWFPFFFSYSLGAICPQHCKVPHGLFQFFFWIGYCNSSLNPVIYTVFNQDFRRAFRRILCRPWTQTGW
UniProt P22909, whole entry, looked up: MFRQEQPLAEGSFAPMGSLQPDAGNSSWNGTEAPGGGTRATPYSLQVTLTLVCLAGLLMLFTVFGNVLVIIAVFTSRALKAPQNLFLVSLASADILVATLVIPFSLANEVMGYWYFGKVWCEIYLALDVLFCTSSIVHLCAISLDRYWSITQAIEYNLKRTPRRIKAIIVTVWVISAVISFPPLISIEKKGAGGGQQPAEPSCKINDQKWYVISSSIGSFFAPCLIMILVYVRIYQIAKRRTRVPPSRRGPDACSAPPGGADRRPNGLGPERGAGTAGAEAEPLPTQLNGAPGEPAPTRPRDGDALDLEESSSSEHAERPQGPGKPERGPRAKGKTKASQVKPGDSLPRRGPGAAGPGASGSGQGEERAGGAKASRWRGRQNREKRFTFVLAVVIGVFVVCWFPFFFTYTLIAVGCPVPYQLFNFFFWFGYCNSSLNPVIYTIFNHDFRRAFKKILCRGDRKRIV
UniProt P16177, whole entry, looked up: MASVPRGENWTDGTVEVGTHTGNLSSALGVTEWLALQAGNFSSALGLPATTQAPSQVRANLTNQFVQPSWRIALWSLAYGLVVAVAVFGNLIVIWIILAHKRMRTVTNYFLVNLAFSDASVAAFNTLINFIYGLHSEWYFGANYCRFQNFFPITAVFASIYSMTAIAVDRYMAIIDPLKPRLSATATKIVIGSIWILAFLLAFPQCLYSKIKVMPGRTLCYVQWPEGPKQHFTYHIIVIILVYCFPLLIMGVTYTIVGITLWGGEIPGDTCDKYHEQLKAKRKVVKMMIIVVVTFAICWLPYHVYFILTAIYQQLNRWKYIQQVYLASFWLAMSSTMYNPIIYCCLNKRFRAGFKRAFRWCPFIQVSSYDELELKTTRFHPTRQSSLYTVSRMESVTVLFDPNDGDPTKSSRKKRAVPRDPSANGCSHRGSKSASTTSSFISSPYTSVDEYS
UniProt P28646: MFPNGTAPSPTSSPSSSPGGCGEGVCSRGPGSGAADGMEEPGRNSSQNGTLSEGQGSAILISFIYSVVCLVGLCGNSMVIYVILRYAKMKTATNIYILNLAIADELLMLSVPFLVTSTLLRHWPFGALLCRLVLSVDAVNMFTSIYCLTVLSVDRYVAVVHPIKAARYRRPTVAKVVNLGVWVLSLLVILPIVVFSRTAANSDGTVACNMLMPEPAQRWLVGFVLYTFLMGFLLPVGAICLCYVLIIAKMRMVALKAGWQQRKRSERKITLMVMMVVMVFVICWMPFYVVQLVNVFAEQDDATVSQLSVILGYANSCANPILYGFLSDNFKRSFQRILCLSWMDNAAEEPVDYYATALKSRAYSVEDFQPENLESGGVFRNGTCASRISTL
UniProt P30560, whole entry, looked up: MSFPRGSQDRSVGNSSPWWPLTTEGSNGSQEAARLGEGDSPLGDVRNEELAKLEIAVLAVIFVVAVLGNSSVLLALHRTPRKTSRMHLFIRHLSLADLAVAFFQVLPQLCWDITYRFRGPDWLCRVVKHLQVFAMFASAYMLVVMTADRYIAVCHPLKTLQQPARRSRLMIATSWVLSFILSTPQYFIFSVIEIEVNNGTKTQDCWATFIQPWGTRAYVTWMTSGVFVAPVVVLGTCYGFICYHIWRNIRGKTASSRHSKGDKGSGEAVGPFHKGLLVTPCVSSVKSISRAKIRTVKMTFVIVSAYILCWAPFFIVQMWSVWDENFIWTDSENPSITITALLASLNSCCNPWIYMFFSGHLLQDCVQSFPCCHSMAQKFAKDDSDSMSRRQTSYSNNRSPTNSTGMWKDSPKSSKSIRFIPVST
UniProt Q9Z0U4, whole entry, looked up: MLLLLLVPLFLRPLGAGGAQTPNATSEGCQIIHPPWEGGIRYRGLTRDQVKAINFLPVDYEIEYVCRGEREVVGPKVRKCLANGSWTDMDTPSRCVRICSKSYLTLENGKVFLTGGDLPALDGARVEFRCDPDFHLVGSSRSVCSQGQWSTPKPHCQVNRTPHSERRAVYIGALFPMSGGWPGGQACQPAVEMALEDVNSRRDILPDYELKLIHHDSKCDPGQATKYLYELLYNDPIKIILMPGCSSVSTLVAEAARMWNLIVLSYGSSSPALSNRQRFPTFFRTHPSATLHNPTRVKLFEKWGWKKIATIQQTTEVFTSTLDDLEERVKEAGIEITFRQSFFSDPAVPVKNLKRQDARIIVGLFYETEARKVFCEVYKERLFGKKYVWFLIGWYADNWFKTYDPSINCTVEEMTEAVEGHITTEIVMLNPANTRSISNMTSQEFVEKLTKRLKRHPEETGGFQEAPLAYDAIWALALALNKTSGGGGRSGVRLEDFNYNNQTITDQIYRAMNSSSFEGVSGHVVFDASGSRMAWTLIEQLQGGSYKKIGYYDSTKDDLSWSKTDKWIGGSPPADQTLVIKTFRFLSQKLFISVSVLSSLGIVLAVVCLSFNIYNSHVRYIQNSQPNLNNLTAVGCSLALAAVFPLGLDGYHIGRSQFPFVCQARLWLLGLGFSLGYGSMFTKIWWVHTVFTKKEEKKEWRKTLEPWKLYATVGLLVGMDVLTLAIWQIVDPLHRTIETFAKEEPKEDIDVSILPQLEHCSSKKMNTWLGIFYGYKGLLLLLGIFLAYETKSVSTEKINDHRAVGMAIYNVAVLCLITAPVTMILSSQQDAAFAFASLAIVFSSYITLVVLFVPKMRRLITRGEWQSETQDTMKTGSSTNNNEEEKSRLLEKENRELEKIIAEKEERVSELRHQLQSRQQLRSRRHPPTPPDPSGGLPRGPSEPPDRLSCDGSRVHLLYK

What was measured:
[1] = target: rat Neurokinin-1 Receptor (NK1), Tacr1 (gene 24807) (UniProt P14600); test: NVS_GPCR_rNK1: NovaScreen (NVS) G Protein-Coupled Receptor Assay for rat Neurokinin-1 Receptor (NK1) (AID 2283309)
How it was run: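 Competitive radioligand binding to NK1 in rat submaxillary membranes, 1 h incubation, filtration and scintillation read-out. Compounds first screened at 25 uM in duplicate, then concentration-response for actives; signal loss relative to DMSO.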

[2] = target: rat Opioid Receptor, Non-selective Sodium (Na+) Binding, Oprm1 (gene 25601) (UniProt P33535); test: NVS_GPCR_rOpiate_NonSelectiveNa: NovaScreen (NVS) G Protein-Coupled Receptor Assay for rat Opioid Receptor, Non-selective Sodium (Na+) Binding (AID 2283311)
How it was run: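 Filtration radioligand binding on rat forebrain membrane preparations, read 1.5 h after dosing. Single-concentration 25 µM primary screen in duplicate, followed by singleton concentration series to 50 µM max for actives; DMSO baseline.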

[3] = target: rat Neonicotinoid receptor (NNR), Chrna7 (gene 25302) (UniProt Q05941); test: NVS_LGIC_rNNR_BungSens: NovaScreen (NVS) Ligand-Gated Ion Channel Assay for rat Neonicotinoid receptor (NNR) (AID 2283315)
How it was run: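 Rat cortical membrane preparation incubated 2.5 h with tritiated or iodinated radioligand and test chemical. Bound radioactivity was filtered and counted by scintillation, and displacement was analysed against DMSO.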

[4] = target: Adra2b (gene 24174) (UniProt P19328); test: NVS_GPCR_rmAdra2B: NovaScreen (NVS) G Protein-Coupled Receptor Assay for hybird cells Adrenergic, Alpha 2B Receptor (Adra2B) (AID 2283306)
How it was run: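 Compounds screened first at 25 uM in duplicate, with actives followed up in concentration-response; specific radioligand displacement from hybrid neuroglioma/blastoma cell membrane preparations measured by filter scintillation counting after 1 h, normalized to DMSO.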

[5] = target: Voltage-dependent N-type calcium channel subunit alpha-1B (Rattus norvegicus) (UniProt Q02294); test: NVS_IC_rCaChN: NovaScreen (NVS) Ion Channel Assay for rat Calcium Channel, Type N (CaChN) (AID 2283317)
[6] = target: rat Adrenergic Receptor, Alpha 2 (Adra2), Non-selective Binding, Adra2a (gene 25083) (UniProt P22909); test: NVS_GPCR_rAdra2_NonSelective: NovaScreen (NVS) G Protein-Coupled Receptor Assay for rat Adrenergic Receptor, Alpha 2 (Adra2), Non-selective Binding (AID 2283299)
How it was run: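 Filter-based scintillation counting of radioligand binding to rat cortical membrane receptors, measured 1.25 hours post-dosing; loss of signal versus DMSO indicates displacement. Initial single-concentration duplicate at 25 uM, then concentration series.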

[7] = target: rat Neurokinin-3 Receptor (NK3), Tacr3 (gene 24808) (UniProt P16177); test: NVS_GPCR_rNK3: NovaScreen (NVS) G Protein-Coupled Receptor Assay for rat Neurokinin-3 Receptor (NK3) (AID 2283310)
How it was run: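 Filter-based radioligand displacement on rat cortex membrane preparations, read by scintillation 2 h post-dose. Chemicals first tested in duplicate at 25 uM; actives followed up in concentration series with a 50 uM maximum.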

[8] = target: rat Opioid Receptor, Non-selective Binding, Oprm1 (gene 25601) (UniProt P33535); test: NVS_GPCR_rOpiate_NonSelective: NovaScreen (NVS) G Protein-Coupled Receptor Assay for rat Opioid Receptor, Non-selective Binding (AID 2283318)
How it was run: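 Filter-based radioligand displacement using rat forebrain membrane preparations, measured 1.5 h post-dosing. Single-concentration duplicate screen at 25 uM, follow-up in concentration series; activity taken as signal loss relative to DMSO.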

[9] = target: rat Somatostatin Receptor (SST), Sstr1 (gene 25033) (UniProt P28646); test: NVS_GPCR_rSST: NovaScreen (NVS) G Protein-Coupled Receptor Assay for rat Somatostatin Receptor (SST) (AID 2283314)
How it was run: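 Single-concentration duplicate screen (25 uM), then concentration-response up to 50 uM for chemicals passing a threshold such as 30% inhibition. Membranes came from rat forebrain. Binding was measured 1 h post-dose by filter radiodetection and scintillation, relative to DMSO.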

[10] = target: rat Vasopressin 1 Receptor (V1), Avpr1a (gene 25107) (UniProt P30560); test: NVS_GPCR_rV1: NovaScreen (NVS) G Protein-Coupled Receptor Assay for rat Vasopressin 1 Receptor (V1) (AID 2283316)
How it was run: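 Concentration-response up to 50 uM for chemicals passing a threshold such as 30% inhibition in an initial duplicate 25 uM screen. Displacement of radioligand from rat liver membranes measured after 1.5 h by filtration and scintillation.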

[11] = target: rat Gamma-Aminobutyric Acid Type B Receptor (GABBR), Gabbr1 (gene 81657) (UniProt Q9Z0U4); test: NVS_GPCR_rGABBR: NovaScreen (NVS) G Protein-Coupled Receptor Assay for rat Gamma-Aminobutyric Acid Type B Receptor (GABBR) (AID 2283301)
How it was run: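 Rat cortical membrane preparation, competitive radioligand binding for 1 h with filtration and scintillation readout. Actives from duplicate single-point 25 uM screening proceeded to concentration series with 50 uM top concentration.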

[12] = test system: NCBI gene 24521; test: NVS_IC_rKATPCh: NovaScreen (NVS) Ion Channel Assay for rat Potassium Channel, ATP-Sensitive (KATPCh) (AID 2283319)
How it was run: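 Primary duplicate screen at 25 uM, then singleton concentration series to 50 uM maximum, in a rat cortex membrane radioligand displacement assay. Binding measured by filtration and scintillation 2 h post-dose; DMSO baseline.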

[13] = NVS_IC_rCaDHPRCh_L: NovaScreen (NVS) Ion Channel Assay for rat Calcium Channel, Type L, Dihydropyridine Site (CaDHPRCh_L) (AID 2283320)
How it was run: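 Rat cortex membrane preparation; dihydropyridine-site radioligand displacement read 1 h post-dose by filtration and scintillation. Primary single-point screen 25 uM in duplicate, then concentration series to 50 uM maximum; DMSO as negative control.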

[14] = target: Sodium channel protein type 1 subunit alpha (Rattus norvegicus) (UniProt P04774); test: NVS_IC_rNaCh_site2: NovaScreen (NVS) Ion Channel Assay for rat Sodium Channel, Site 2 (NaCh) (AID 2283322);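 further: hit means loss of radioligand binding signal relative to DMSO so AC50 marks displacement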
How it was run: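 Initial duplicate single-point testing at 25 uM, followed by concentration-response runs for actives. Binding of radioligand to rat forebrain membranes quantified after 1 h via filter-based radiodetection.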

For `Cc1cc(F)ccc1-c1cc(N2CC[C@@H](O)[C@H]2CO)ncc1N(C)C(=O)C(C)(C)c1cc(C(F)(F)F)cc(C(F)(F)F)c1`, the AC50 [1] was active: 0.274 µM and the outcome [2] was “inactive”.
For `Cc1cc(O)c(C)c(C)c1O`, the outcome [3] was “inactive”.
For `CNCc1ccc(NC(=O)c2c[nH]c3c2C(=O)CCC3)cc1`, the outcome [4] was “inactive” and the outcome [5] was “inactive”.
With `Cn1cnc2c1c(=O)[nH]c(=O)n2C` the AC50 [6] was inconclusive: 0.447 µM, the AC50 [4] was inconclusive: 0.113 µM and the AC50 [1] was inconclusive: 2.69 µM. For the same compound, the AC50 [2] was inconclusive: 10.5 µM.
In the case of `CS(=O)(=O)c1ccc([C@@H](C[C@H]2CCC(=O)C2)C(=O)Nc2cnccn2)cc1Cl`, the AC50 [1] is reported as inconclusive: 0.224 µM and the outcome [5] is reported as “inactive”.
In the case of `Clc1cc(Cl)c(Cl)cc1Cl`, the AC50 [2] is reported as inconclusive: 0.153 µM.
For `CC/C(=C\C(=N/O)C(N)=O)C(C)[N+](=O)[O-]` (centres undefined), the AC50 [7] was inconclusive: 45.3 µM, the AC50 [3] was inconclusive: 0.473 µM and the outcome [5] was “inactive”. For the same compound, the AC50 [8] was inconclusive: 25 µM.
For `CCOc1cccc(-n2cc(C(=O)N3CCN(c4cc(C(=O)O)c5ccccc5c4)CC3)nc2-c2ccc(C)cc2)c1`, the AC50 [7] was active: 8.81 µM.
With `CS(=O)(=O)c1ccc([C@@H](CC2CCCC2)C(=O)Nc2cnccn2)cc1Cl` the AC50 [7] was inconclusive: 25 µM.
For `COCCOCCOC`, the AC50 [1] was inconclusive: 25 µM.
For `CN(C)CCCN1c2ccccc2Sc2ccc(Cl)cc21`, the AC50 [9] was inconclusive: 25 µM, the AC50 [10] was inconclusive: 5.6 µM and the AC50 [5] was inconclusive: 25 µM.
With `CN(C)c1ccc(N=NS(=O)(=O)O)cc1` the AC50 [6] was inconclusive: 0.711 µM and the outcome [7] was “inactive”.
In the case of `CCCCN1C(=O)[C@@H]([C@H](O)C2CCCCC2)NC(=O)C12CCN(Cc1ccc(Oc3ccc(C(=O)O)cc3)cc1)CC2`, the outcome [7] is reported as “inactive”.
In the case of `Cc1oc(-c2ccccc2)nc1CCOc1cccc2c1ccn2CCC(=O)O`, the AC50 [11] is reported as active: 15.9 µM and the outcome [5] is reported as “inactive”.
In the case of `CCN(CC)C(=S)SSC(=S)N(CC)CC`, the AC50 [9] is reported as inconclusive: 25 µM.
For `CC1(C)CC(N=C=O)CC(C)(CN=C=O)C1` (centres undefined), the AC50 [12] was inconclusive: 25 µM.
With `Cc1ccc(S(=O)(=O)NC(=O)NN2CCCCCC2)cc1` the AC50 [12] was active: 3.58 µM.
With `CO[C@H]1/C=C/O[C@@]2(C)Oc3c(C)c(O)c4c(O)c(c(/C=N/N5CCN(C)CC5)c(O)c4c3C2=O)NC(=O)/C(C)=C\C=C\[C@H](C)[C@H](O)[C@@H](C)[C@@H](O)[C@@H](C)[C@H](OC(C)=O)[C@@H]1C` the AC50 [13] was inconclusive: 0.275 µM.
In the case of `CC(C)(C)CC(C)(C)c1ccc(O)c(-n2nc3ccccc3n2)c1`, the AC50 [13] is reported as inconclusive: 2.01 µM.
For `CC[C@H]1OC(=O)[C@H](C)[C@@H](O[C@H]2C[C@@](C)(OC)[C@@H](O)[C@H](C)O2)[C@H](C)[C@@H](O[C@@H]2O[C@H](C)C[C@H](N(C)C)[C@H]2O)[C@](C)(O)C[C@@H](C)C(=O)[C@H](C)[C@@H](O)[C@]1(C)O`, the AC50 [14] was inconclusive: 18.6 µM.
For `CCOCOCC`, the AC50 [14] was inconclusive: 0.0197 µM.
